In PubChem BioAssay AID1471 (National Center for Advancing Translational Sciences (NCATS), 2008):
In all, about 230,000 compounds went through this assay and about 310 (0.13%) were called active. Inconclusive results, whose numbers are uncertain, are shown with a selection of clear calls. Calls come from the whole dose curve; as a rule, active = well fitted activation curve with a large enough effect; inconclusive = small, poorly fitted or top-dose-only effect; inactive = no such curve, though single readings can be large or run the other way. Potencies of inconclusive entries are doubtful fits and often do not repeat.
Potency is the fitted concentration of half-maximal effect.

Assay: qHTS Multiplex Assay to Identify Dual Action Probes in a Cell Model of Huntington: Cytoprotection (ATP); note: nearly all actives have a fitted effect of over 45% in size;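 for cytoprotection (ATP increase): toxic huntingtin expression switched on by the ecdysone agonist tebufenozide; % of control where 0% means no effect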
Conditions: PC12 HTT-Q103 induced, ATP luminescence, 40 h; cytoprotection (ATP increase): at 56.4 µM (top of the series) unless noted
Procedure, shortened: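 PC12 cells with ecdysone-inducible HTT exon 1 Q103-GFP, induced with 100 nM tebufenozide and co-treated with library compounds in a dose series (1536-well, 1500 cells/well). Cytoprotection read as ATP content by ATPlite luminescence.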
With `CC(c1ccccc1)N1C(=O)/C(=C/c2ccncc2)SC1=S` (centres undefined) the cytoprotection (ATP increase) was inactive: -2.78% [at 10 µM]. For `COc1ccc(C(=O)NCCSc2ccccc2)cc1OC`, the Potency was inconclusive: 1.12 µM [activator, single point]. For `Cc1ccc(C(=O)N2CCN(Cc3ccc4c(c3)OCO4)CC2)cc1[N+](=O)[O-]`, the “cytoprotection (ATP increase)” value was inactive: 0.066%. With `COc1ccc(/C=C2\N=C(c3ccccc3)N(c3ccc(C(=O)O)cc3)C2=O)cc1OC` the cytoprotection (ATP increase) was inactive: 9.94% [at 10 µM]. With `COC(=O)CC1=C(C(=O)OC)C(c2cccc(OCC(N)=O)c2)C(C#N)=C(N)O1` (centres undefined) the “cytoprotection (ATP increase)” value was inactive: 11.5%. For `Cc1[nH]c2ccccc2c1CCNC(=O)CCC(=O)c1ccccc1`, the Potency was inconclusive: 1 µM [activator, partial curve]. In the case of `CC(NC(=O)C1CCCCC1)C(c1cccs1)N1CCOCC1` (centres undefined), the Potency is reported as inconclusive: 5.62 µM [activator, single point]. With `COC(=O)C1=C(C)NC(=O)NC1c1ccc(OC(=O)c2ccco2)cc1` (centres undefined) the Potency was inconclusive: 1 µM [activator, single point]. With `c1ccc2c(Nc3nc(-c4ccncc4)nc4ccccc34)cccc2c1` the Potency was inconclusive: 5.01 µM [activator, single point]. In the case of `O=C(CCNC(=O)c1ccccc1)OCC(=O)c1cccc(Cl)c1`, the Potency is reported as inconclusive: 5.62 µM [activator, single point]. For `CN1CC2=Cc3ccccc3OC23Oc2ccccc2C=C3C1`, the Potency was inconclusive: 35.5 µM [activator, single point]. For `Cc1ccc(Cn2cnc3ccccc32)cc1C`, the Potency was inconclusive: 3.98 µM [activator, single point]. For `CC(C)(C)NC(=O)C(=O)NNC(=O)c1cccc(F)c1`, the Potency was inconclusive: 1.26 µM [activator, single point]. In the case of `COCCn1c(=O)c(-c2ccccc2)nc2cnc(Nc3cccc(OC)c3)nc21`, the “cytoprotection (ATP increase)” value is reported as inactive: -26.9%. With `C[C@@H]1CCN=C(N)S1` the Potency was inconclusive: 0.631 µM [activator, single point]. With `COc1ccccc1NC(=S)NC(=O)CCCOc1ccc(Cl)cc1Cl` the “cytoprotection (ATP increase)” value was inactive: -14.3%. For `CCCCCc1c2c(cc(O)c1C(=O)O)OC(=O)c1cc(C(=O)CCCC)c(OC)cc1O2`, the Potency was inconclusive: 3.55 µM [activator, single point]. With `CN(C)CCCCOc1ccc(Br)cc1Cl` the “cytoprotection (ATP increase)” value was inactive: -35%. In the case of `Cn1cc(C(=O)N2CCc3ccccc32)cn1`, the Potency is reported as inconclusive: 1 µM [activator, single point]. With `O=C(CCN1C(=O)/C(=C/c2ccccc2Cl)SC1=S)NC1=NCCS1` the Potency was inconclusive: 12.6 µM [activator, single point]. With `C/C(=N/NC(=O)c1ccncc1)C1=C(O)CC(C)(C)CC1=O` the Potency was inconclusive: 0.891 µM [activator, single point]. With `CC[C@H](c1ccc(O)cc1)[C@@H](CC)c1ccc(O)cc1` the Potency was inconclusive: 7.08 µM [activator, partial curve]. In the case of `Cc1ccc(NS(=O)(=O)c2ccc(C3CCCCC3)cc2)cc1`, the Potency is reported as inconclusive: 4.47 µM [activator, single point]. In the case of `CCCCC(=O)O[C@]1(C(=O)CO)[C@H](C)C[C@H]2[C@@H]3CCC4=CC(=O)C=C[C@]4(C)[C@@]3(F)[C@@H](O)C[C@@]21C`, the “cytoprotection (ATP increase)” value is reported as inactive: -11.1%. In the case of `COc1ccnc(Oc2ccc(F)cc2)c1C(=O)N/C=N/OCc1c(Cl)cccc1Cl`, the Potency is reported as inconclusive: 1.26 µM [activator, single point]. In the case of `COc1ccc(C(=O)NC(=S)NNC(=O)c2cnccn2)cc1`, the Potency is reported as inconclusive: 5.62 µM [activator, single point]. With `COC(=O)C/C=C1\c2ccc3c(c2[C@@H](OC)[C@@H]1C)OCO3` the Potency was inconclusive: 14.1 µM [activator, partial curve, poor fit]. In the case of `Cc1ccc(NC(=S)NCCN2CCOCC2)cc1`, the Potency is reported as inconclusive: 0.447 µM [activator, partial curve, poor fit]. With `COCc1cc(C)nc(SCC[N+](C)(C)CC(=O)Nc2ccccc2)c1C#N` the Potency was inconclusive: 5.62 µM [activator, single point]. With `CCCOC(=O)c1ccc(N)cc1` the “cytoprotection (ATP increase)” value was inactive: -31.9%. For `CCSc1nnc(NC(=O)COc2ccccc2)s1`, the Potency was inconclusive: 0.794 µM [activator, single point]. For `N#CCCCS(=O)(=O)c1nnnn1-c1ccc(F)cc1Br`, the Potency was active: 7.08 µM. In the case of `O=C(Nc1cccc(C2=NCCN2)c1)Nc1cccc(C2=NCCN2)c1`, the Potency is reported as inconclusive: 0.794 µM [activator, full curve, poor fit]. With `O=S(=O)(c1ccccc1)N1CCC2(CCN(c3ccncc3)CC2)CC1` the Potency was inconclusive: 0.562 µM [activator, full curve, poor fit]. In the case of `Cc1sc(-c2ccncc2)nc1OC(=O)c1cc(Cl)cc(Cl)c1`, the “cytoprotection (ATP increase)” value is reported as inactive: 3.36%. With `O=C(c1cnccn1)N1CCC[C@@]2(CCN(C(c3ccccc3)c3ccccc3)C2)C1` the “cytoprotection (ATP increase)” value was inactive: 13.8%. For `COc1ccc(OC2C=CC(C#Cc3ccc(C(C)(C)C)cc3)OC2CO)cc1` (centres undefined), the cytoprotection (ATP increase) was inactive: 13.9% [at 10 µM]. For `Fc1ccc(CN2C3=NCCN3c3ccccc32)cc1`, the Potency was inconclusive: 1 µM [activator, single point]. For `C[C@H]1OC(OC2C(O)[C@@H](O)C(OC3C(O)[C@@H](O)C(O)O[C@@H]3CO)O[C@@H]2CO)[C@H](O)C(O)C1N[C@H]1C=C(CO)[C@@H](O)[C@H](O)C1O` (some centres undefined), the “cytoprotection (ATP increase)” value was inactive: 25.4%. With `COc1ccc(OCC(=O)Sc2ccc(C)cc2)cc1` the “cytoprotection (ATP increase)” value was inactive: 6.36%. With `COc1ccc(C(=O)OC/C(O)=C(\C#N)c2nc3ccccc3[nH]2)cc1S(=O)(=O)N1CCOCC1` the Potency was inconclusive: 1 µM [activator, single point]. For `COCCCn1c(SCc2ccccc2)nc2cc(OC)c(OC)cc2c1=N`, the Potency was inconclusive: 1.26 µM [activator, single point]. In the case of `Cc1ccccc1C(=O)OC1OC(=O)C(Cl)=C1Nc1ccccc1` (centres undefined), the Potency is reported as inconclusive: 35.5 µM [activator, single point]. With `O=C(CNC(=O)c1ccccc1)OCc1nnc(-c2ccc(Cl)cc2)o1` the Potency was inconclusive: 0.0891 µM [activator, partial curve, poor fit].
